Test [1] concerns the target MBP-hdm2 (clone 4, MBP-MVRSRQ-M1...N221) (human) (UniProt Q00987). The experiment in a line: single clone phage ELISA on coated antigen.
For test [2] the target is unchanged. The test can be described thus: phage ELISA, phage and fusion protein in solution, capture by anti-mdm2 antibodies. Background: An ELISA detects its analyte on a solid surface through an enzyme-linked reagent.
For test [3], the target named is TRX-hdm2 (thioredoxin-hdm2 fusion) (human) (UniProt Q00987). The test is described as above.

By UniProt entry, the sequences of proteins in these tests, tags left out. Where a name states a change or a piece, a line headed by the entry shows the natural chain unless it says otherwise. Chains listed by the source or under a name are the forms on record and can include a tag or linker.
MBP-hdm2 (clone 4, MBP-MVRSRQ-M1...N221) (Q00987, form named): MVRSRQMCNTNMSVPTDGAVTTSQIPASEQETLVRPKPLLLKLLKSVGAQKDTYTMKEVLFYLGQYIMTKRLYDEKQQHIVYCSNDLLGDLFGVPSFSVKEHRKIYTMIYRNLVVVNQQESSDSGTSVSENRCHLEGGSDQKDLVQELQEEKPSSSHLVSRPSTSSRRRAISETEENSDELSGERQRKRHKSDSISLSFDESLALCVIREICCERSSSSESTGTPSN

These are yes or no findings as the source states them, for the method shown. Some entries that bind do so weakly or less than the wild type.

The source of these data is patent US20010018511A1.

For the molecule MPRFMDYWEGLN (peptide, not shown: large carriers) [phage clone 12/1], the binding result in test [1] is “binds”.

On to PRPALVFADYWETLY (peptide, not shown: large carriers) [phage clone 15/5], for which the binding result in test [1] was “binds”.

As for TGPAFTHYWATF (peptide, not shown: large carriers) [phage clone 12/5], the binding result in test [1] is “binds”.

On to VQNFIDYWTQQF (peptide, not shown: large carriers) [phage clone 12/2], for which the binding result in test [1] was “binds”.

As for PAFSRFWSDLSAGAH (peptide, not shown: large carriers) [phage clone BB3], the binding entry in test [1], in test [2] and in test [3] was “binds” in each case.

With IDRAPTFRDHWFALV (peptide, not shown: large carriers) [phage clone 15/1], in test [1], the binding entry is “binds”.
